From article PMC5157023 come the findings set out here.

Amino acid sequences for entries named in this document (tags omitted). A change or cut given only in a name is not applied to a line headed by its entry.
UniProt O60506: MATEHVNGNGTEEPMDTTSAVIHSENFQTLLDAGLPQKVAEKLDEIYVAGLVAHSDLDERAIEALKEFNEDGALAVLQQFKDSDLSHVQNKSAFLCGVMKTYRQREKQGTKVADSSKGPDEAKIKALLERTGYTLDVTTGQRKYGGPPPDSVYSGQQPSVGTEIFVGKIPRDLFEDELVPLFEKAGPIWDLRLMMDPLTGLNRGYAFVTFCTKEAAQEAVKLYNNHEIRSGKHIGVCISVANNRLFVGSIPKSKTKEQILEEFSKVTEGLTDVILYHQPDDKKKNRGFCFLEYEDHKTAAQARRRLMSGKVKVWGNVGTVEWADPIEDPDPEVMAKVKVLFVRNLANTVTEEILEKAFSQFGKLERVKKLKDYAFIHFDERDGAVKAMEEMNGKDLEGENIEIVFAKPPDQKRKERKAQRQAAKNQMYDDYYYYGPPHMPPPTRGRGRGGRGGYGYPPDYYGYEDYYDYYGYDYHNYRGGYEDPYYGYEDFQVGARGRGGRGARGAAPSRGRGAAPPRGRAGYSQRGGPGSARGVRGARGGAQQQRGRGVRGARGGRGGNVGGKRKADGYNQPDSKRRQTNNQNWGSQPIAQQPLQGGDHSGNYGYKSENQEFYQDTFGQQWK
UniProt Q13263: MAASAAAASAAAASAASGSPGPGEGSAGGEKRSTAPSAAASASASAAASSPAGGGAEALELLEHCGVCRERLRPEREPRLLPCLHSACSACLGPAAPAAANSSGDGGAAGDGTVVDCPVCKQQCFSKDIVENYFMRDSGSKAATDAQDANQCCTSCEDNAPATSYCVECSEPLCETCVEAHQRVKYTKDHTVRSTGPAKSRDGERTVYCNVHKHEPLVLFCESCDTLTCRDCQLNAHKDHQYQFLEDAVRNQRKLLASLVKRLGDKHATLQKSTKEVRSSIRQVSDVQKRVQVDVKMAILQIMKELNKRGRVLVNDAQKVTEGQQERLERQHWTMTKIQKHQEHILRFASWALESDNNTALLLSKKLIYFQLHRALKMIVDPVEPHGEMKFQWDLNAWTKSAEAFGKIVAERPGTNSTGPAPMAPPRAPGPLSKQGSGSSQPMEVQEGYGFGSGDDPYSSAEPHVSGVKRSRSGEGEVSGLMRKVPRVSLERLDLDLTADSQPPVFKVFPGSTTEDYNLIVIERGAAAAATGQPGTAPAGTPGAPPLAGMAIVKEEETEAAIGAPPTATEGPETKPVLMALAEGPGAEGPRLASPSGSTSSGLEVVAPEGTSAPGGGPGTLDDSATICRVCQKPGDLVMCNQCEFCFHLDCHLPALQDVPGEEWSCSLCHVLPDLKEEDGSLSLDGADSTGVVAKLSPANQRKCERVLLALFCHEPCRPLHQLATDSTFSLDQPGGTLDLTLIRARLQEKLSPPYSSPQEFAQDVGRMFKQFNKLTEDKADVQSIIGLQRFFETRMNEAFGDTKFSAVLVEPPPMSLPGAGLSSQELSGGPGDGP
UniProt O75367: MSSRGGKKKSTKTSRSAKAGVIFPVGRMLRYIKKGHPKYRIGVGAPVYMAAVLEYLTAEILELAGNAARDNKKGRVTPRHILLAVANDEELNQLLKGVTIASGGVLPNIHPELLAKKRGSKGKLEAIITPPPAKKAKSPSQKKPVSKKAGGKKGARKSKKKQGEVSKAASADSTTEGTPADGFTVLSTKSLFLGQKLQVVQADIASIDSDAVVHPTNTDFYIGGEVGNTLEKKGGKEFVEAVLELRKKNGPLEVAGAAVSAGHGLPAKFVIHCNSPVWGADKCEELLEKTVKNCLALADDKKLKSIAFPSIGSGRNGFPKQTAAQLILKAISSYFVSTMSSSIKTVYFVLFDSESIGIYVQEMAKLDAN
UniProt P17096: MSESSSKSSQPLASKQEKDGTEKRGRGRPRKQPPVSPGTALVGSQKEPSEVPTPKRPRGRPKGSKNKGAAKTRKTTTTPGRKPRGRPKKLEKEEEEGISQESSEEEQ
UniProt Q9UQL6: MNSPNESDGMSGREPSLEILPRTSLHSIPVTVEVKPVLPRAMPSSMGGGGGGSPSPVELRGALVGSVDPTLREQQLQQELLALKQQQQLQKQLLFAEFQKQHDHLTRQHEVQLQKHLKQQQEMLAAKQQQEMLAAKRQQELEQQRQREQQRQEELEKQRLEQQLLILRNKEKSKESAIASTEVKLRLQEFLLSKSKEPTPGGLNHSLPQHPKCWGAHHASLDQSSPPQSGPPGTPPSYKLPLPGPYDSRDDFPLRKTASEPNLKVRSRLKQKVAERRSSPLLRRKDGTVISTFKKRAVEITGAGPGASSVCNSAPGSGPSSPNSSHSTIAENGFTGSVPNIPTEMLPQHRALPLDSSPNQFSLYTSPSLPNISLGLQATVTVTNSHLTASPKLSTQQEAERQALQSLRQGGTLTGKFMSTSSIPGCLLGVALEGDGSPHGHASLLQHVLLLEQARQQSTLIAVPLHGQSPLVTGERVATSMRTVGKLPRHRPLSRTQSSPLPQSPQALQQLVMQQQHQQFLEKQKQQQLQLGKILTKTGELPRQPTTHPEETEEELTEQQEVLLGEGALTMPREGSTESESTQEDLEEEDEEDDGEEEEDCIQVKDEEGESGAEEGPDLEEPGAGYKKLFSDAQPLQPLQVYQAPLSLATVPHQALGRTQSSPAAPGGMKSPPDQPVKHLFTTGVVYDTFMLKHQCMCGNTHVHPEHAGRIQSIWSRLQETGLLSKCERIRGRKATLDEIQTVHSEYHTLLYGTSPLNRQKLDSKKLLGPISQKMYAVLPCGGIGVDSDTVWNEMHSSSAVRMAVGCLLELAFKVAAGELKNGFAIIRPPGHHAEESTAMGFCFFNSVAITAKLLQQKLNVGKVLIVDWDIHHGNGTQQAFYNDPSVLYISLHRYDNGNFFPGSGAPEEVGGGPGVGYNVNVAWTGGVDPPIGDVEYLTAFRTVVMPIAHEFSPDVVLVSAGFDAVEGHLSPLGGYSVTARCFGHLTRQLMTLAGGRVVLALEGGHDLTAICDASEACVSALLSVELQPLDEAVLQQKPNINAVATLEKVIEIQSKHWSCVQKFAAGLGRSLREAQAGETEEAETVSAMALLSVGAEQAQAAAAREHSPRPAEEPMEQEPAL
UniProt P06748: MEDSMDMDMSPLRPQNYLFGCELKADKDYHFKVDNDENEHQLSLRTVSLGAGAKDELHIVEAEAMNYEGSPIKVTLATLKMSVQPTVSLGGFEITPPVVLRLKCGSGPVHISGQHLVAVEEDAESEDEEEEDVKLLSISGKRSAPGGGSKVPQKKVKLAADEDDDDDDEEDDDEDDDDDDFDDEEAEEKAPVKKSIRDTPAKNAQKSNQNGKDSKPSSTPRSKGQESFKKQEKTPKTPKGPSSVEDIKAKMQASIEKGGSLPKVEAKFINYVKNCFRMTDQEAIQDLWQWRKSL
UniProt P09874: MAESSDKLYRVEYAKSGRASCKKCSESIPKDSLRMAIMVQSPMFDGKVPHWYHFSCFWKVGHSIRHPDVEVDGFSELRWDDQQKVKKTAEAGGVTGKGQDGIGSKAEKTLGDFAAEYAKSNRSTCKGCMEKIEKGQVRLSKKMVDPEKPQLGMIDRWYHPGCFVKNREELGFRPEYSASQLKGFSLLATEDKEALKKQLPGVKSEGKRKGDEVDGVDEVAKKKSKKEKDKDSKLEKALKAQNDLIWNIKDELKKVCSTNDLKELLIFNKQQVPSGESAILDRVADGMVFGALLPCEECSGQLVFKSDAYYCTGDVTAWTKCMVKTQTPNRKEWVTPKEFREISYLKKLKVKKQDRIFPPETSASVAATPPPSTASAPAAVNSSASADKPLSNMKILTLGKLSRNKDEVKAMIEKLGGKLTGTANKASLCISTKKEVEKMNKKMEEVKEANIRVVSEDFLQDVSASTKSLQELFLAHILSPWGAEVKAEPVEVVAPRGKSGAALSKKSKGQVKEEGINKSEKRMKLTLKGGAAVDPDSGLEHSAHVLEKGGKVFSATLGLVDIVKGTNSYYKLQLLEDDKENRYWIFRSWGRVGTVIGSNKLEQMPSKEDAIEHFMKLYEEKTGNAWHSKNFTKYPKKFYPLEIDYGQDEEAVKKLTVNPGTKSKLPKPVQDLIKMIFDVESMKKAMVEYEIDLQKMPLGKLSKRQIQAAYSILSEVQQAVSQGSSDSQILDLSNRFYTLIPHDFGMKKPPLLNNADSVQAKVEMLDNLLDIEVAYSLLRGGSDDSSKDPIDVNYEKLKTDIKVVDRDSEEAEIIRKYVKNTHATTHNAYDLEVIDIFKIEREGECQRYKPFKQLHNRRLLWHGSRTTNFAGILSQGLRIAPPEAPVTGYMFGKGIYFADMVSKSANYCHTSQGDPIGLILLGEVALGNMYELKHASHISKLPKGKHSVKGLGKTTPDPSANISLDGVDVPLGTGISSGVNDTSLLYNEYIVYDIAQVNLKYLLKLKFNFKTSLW

Results are given in words; binding and its absence hold for the method and conditions named. Binding seen in cells or lysates may run through a third protein. Here binding means that the protein was enriched with, or labelled near, the bait; the list need not be complete. Tags and fused reporters may be left off the sequences shown.

For the assay, the target named is V5-tagged RE-1 silencing transcription factor (REST) (UniProt Q13127). In words: affinity purification with mass spectrometry; V5-tagged REST from transfected HEK293FT cells immunoisolated with anti-V5 antibody on agarose beads; lysis buffer 50 mM Tris-HCl pH 7.4, 150 mM NaCl, 5 mM EDTA, 0.2% TritonX-100, 15 U/ml DNAse I; in-solution digestion, triplicate LC-MS/MS, label-free quantification against control vector.
On to HnRNP Q (from UniProt O60506 1-623), for which the binding result is on record as “binds”.
As for “Tripartite motif-containing 28 (TRIM28) (from UniProt Q13263 1-835)”, the binding entry is “binds”.
The entry for “core histone macro-H2A.1 (H2AFY) (from UniProt O75367 1-369)” is “binds”.
For the substance “high mobility group protein HMG-I/HMG-Y (HMGA1) (from UniProt P17096 1-107)”, the binding result is “binds”.
The entry for “histone deacetylase 5 (HDAC5) (from UniProt Q9UQL6 1-1122)” is “binds”.
Next, “nucleophosmin1 (NPM1) (from UniProt P06748 1-294)”: “binds”; “poly[ADP-ribose]polymerase1 (PARP1) (from UniProt P09874 1-1014)”: “binds”.
